Experimental findings from publication PMC10518311 are described below.

Amino acid sequences for entries named in this document (tags omitted).
UniProt Q8TDS4: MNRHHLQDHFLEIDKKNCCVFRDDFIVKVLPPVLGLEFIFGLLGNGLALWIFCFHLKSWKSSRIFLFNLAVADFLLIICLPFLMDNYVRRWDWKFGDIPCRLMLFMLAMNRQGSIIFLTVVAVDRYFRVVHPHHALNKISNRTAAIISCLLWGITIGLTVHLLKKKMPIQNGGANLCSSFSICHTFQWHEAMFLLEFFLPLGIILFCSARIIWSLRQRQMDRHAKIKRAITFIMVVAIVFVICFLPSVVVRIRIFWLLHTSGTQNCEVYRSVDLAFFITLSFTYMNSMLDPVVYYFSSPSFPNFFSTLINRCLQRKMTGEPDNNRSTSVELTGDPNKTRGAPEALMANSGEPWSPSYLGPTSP
UniProt P49407: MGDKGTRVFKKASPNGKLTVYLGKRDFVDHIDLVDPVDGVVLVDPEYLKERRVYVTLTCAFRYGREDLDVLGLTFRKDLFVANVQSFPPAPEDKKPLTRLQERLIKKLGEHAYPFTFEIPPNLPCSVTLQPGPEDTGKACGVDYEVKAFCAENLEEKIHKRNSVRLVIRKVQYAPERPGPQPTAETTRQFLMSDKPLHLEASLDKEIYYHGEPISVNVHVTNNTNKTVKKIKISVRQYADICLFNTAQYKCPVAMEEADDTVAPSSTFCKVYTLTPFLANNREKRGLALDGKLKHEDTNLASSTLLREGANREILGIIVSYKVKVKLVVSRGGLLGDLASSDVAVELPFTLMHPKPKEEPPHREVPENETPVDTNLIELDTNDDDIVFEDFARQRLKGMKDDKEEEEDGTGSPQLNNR

This assay addresses HCAR2 followed by the SmBiT at C-terminus (human) (UniProt Q8TDS4). Kind of assay: split reporter; LgBiT-β-arrestin1 and HCAR2-SmBiT co-transfected in HEK293 cells; luminescence after stimulation with orthosteric agonist (MK-6892), with different concentrations of compound 9n.

No constants are given. Whether binding was seen depends on the method and setting. In cells and extracts the contact can be indirect. Some entries that bind do so weakly or less than the wild type.

As for “β-arrestin1 fused the LgBiT at N-terminus (from UniProt P49407 1-418)”, the binding entry is listed as “binds”.
